Source: PubChem BioAssay AID493014 (National Center for Advancing Translational Sciences (NCATS), 2011)
The other results are listed elsewhere or left out. The main result of the screen is listed elsewhere. These columns were measured beside it and carry no call. The list favours compounds with an active or inconclusive main result. Words in brackets tell the shape of the fitted curve; partial curves, single points and poor fits give uncertain potencies.

Experiment: qHTS Assay to Find Inhibitors of Chronic Active B-Cell Receptor Signaling
Settings: ABC-DLBCL IkBa-CBG/CBR reporter, luminescence ratio (green luciferase fused to IkBa over red control in TMD8 lymphoma cells), 4 h
Procedure, shortened: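 Concentration-response series (up to 46 uM) were applied to TMD8 dual-reporter cells for 4 h at 37C with doxycycline. Green/red ratio, after filter-overlap correction, defined %Activity; red signal alone was normalised to basal cells and zero luminescence.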

[1] = measured here: CBR red luminescence, cell number

With Cc1c(C(=O)Nc2ccc(Cl)cc2)c2ccccn2c1CCc1ccncc1 the AC50 [1] was 0.517 µM [rising, full curve].

For Cc1c(C(=O)OCC2CCCO2)[nH]c2c1C(=O)CC(c1ccco1)C2 (configuration not stated), the AC50 [1] was 22.4 µM [rising, single point].

In the case of O=C(OCCCc1ccncc1)c1ccc(S(=O)(=O)N2CCOCC2)cc1, the AC50 [1] is reported as 35.5 µM [rising, single point].

With CCN1CCN(CCNC(=O)Nc2ccc([N+](=O)[O-])cc2)CC1 the AC50 [1] was 17.8 µM [rising, single point].

In the case of CCS(=O)(=O)c1ccc(OC)c(N=Nc2ccc(O)c3ncccc23)c1, the AC50 [1] is reported as 2.82 µM [rising, full curve, poor fit].

For CC(C)(C)OC(=O)Nc1ccc([C@H](NC(=O)OC(C)(C)C)C(=O)OC(C)(C)C)cc1, the AC50 [1] was 29.1 µM [rising, single point].

For CC(C)c1ccc(Oc2cccc(C(=O)/C(C#N)=C/N(C)C)c2)cc1, the AC50 [1] was 2.31 µM [falling, partial curve, poor fit].

In the case of COC(OC)c1ccnc(SCc2ccccc2Cl)n1, the AC50 [1] is reported as 7.94 µM [rising, partial curve, poor fit].

For O=C(O)CN1C(=O)/C(=C\c2ccc(OC(=O)c3ccco3)cc2)SC1=S, the AC50 [1] was 11.2 µM [rising, partial curve, poor fit].

For Cc1cc(C)nc(N/N=C/C=C/c2ccccc2)n1, the AC50 [1] was 18.4 µM [falling, single point].

For CCOC(=O)c1c(C)oc2c1c(C(c1ccncc1)N1CCOCC1)c(O)c1ccccc12 (configuration not stated), the AC50 [1] was 4.11 µM [rising, partial curve, poor fit].

With O=C1CN(C(=O)CSc2nc(-c3ccccc3)cs2)c2ccccc2N1 the AC50 [1] was 1.84 µM [rising, partial curve, poor fit].

For CCN1CCCC1Cn1cnc2c([nH]c3cccc(Cl)c32)c1=O (configuration not stated), the AC50 [1] was 4.47 µM [rising, partial curve, poor fit].

In the case of O=S(=O)(O)c1cccc2c(N=Nc3ccc(O)c4ncccc34)cccc12, the AC50 [1] is reported as 20 µM [rising, single point].

For CC(Oc1ccc(S(=O)(=O)N2CCCC2)cc1[N+](=O)[O-])C(=O)NC(C)c1ccccc1 (configuration not stated), the AC50 [1] was 20.6 µM [falling, single point].

For Cc1cc(C(=O)CN2CCN(CC(=O)Nc3ccc(F)cc3)CC2)c(C)n1C1CC1, the AC50 [1] was 5.8 µM [falling, partial curve, poor fit].

In the case of O=C(Nc1ccc2nc3ccccc3nc2c1)c1ccccc1, the AC50 [1] is reported as 7.31 µM [falling, partial curve, poor fit].

For O=C1ON=C(c2ccccc2)/C1=C/c1ccc(-c2ccccc2[N+](=O)[O-])o1, the AC50 [1] was 18.4 µM [falling, single point].

For CCN(CC(=O)Nc1cccc(OC)c1)C(=O)c1ccco1, the AC50 [1] was 28.2 µM [rising, single point].

For Cc1ccccc1OCC(=O)Nc1ccc2c(c1)OCCO2, the AC50 [1] was 3.16 µM [falling, single point].

In the case of CC(C)c1cc(NC(=O)c2ccccc2)cc(C(C)C)c1O, the AC50 [1] is reported as 7.94 µM [falling, partial curve, poor fit].

In the case of N#CC1=C(N)N2C(=C(C#N)C13CCCCC3)SC1CCCCC12O (configuration not stated), the AC50 [1] is reported as 6.51 µM [falling, single point] and the AC50 (measured here: IkBa-CBG green luminescence) is reported as 3.26 µM [rising, partial curve, poor fit].

In the case of CS(=O)(=O)NCCCCNc1ccc(C(F)(F)F)cc1[N+](=O)[O-], the AC50 [1] is reported as 5.62 µM [rising, partial curve, poor fit].

With COC(=O)c1ccc2c(c1)N(C)CCS2 the AC50 [1] was 29.1 µM [rising, single point].

In the case of CCCCCCCCOC(=O)C1=C(C)Nc2nnnn2C1c1cccs1 (configuration not stated), the AC50 [1] is reported as 29.1 µM [falling, single point].

In the case of O=c1cc[nH]c2ccc(OC(F)(F)F)cc12, the AC50 [1] is reported as 35.5 µM [rising, single point].

In the case of CSc1nnc2ccc(-c3ccccn3)nn12, the AC50 [1] is reported as 6.31 µM [falling, full curve, poor fit].

In the case of CCOc1ccc2nc(C)cc(Nc3ccc4c(c3)OCCO4)c2c1, the AC50 [1] is reported as 12.6 µM [falling, partial curve].

With CN1CCN(C(=O)CCN2C(=O)/C(=C\c3ccc(Cl)cc3)SC2=S)CC1 the AC50 [1] was 15.8 µM [falling, single point].

In the case of Cc1ccn2c(NC3CCCC3)c(-c3ccsc3)nc2c1, the AC50 [1] is reported as 6.31 µM [falling, single point].

For COc1cc(NC(=O)CSCC(=O)Nc2cccc(C(F)(F)F)c2)c(Cl)cc1Cl, the AC50 [1] was 11.2 µM [falling, partial curve, poor fit].

With CCc1nnc(N/N=C/c2c(F)cccc2Cl)n1N the AC50 [1] was 31.6 µM [falling, single point].

In the case of COc1ccc(CNc2nc3ccccc3n2CCN2CCCCC2)c(OC)c1, the AC50 [1] is reported as 25.1 µM [falling, single point].

With CN(CCCOc1ccccc1Br)Cc1ccccc1 the AC50 [1] was 22.4 µM [rising, partial curve, poor fit].

In the case of CCCCN=C1NN=C(c2ccc3c(c2)OCCO3)CS1, the AC50 [1] is reported as 35.5 µM [falling, single point].

For CCCc1nc2c(C)cc(-c3nc4ccccc4n3C)cc2n1Cc1ccc(-c2ccccc2C(=O)O)cc1, the AC50 [1] was 1.26 µM [falling, full curve, poor fit].

With CCOc1ccc(NC(=O)CCn2cccc2)cc1 the AC50 [1] was 1.12 µM [rising, partial curve, poor fit].

For CCN(C(=O)COC(=O)c1cncc(Br)c1)C1CCS(=O)(=O)C1 (configuration not stated), the AC50 [1] was 20 µM [falling, partial curve, poor fit].

For CN(C)CCCN(C(=O)c1ccc(S(=O)(=O)N(C)C)cc1)c1nc2cc3c(cc2s1)OCO3, the AC50 [1] was 14.1 µM [falling, single point].

In the case of C=CCn1c(SCC(=O)c2[nH]c(C)c(C(=O)OC)c2C)nc2scc(-c3ccc(OC)c(OC)c3)c2c1=O, the AC50 [1] is reported as 0.411 µM [rising, full curve, poor fit].

In the case of COc1ccc(-c2cc(C)nc3c(-c4ccccc4)cnn23)cc1, the AC50 [1] is reported as 3.55 µM [rising, partial curve, poor fit].
